# PubChem BioAssay AID2662 (National Center for Advancing Translational Sciences (NCATS), 2010)
# By UniProt entry, the sequences of proteins in these tests, tags left out.
# UniProt Q03164, whole entry, looked up: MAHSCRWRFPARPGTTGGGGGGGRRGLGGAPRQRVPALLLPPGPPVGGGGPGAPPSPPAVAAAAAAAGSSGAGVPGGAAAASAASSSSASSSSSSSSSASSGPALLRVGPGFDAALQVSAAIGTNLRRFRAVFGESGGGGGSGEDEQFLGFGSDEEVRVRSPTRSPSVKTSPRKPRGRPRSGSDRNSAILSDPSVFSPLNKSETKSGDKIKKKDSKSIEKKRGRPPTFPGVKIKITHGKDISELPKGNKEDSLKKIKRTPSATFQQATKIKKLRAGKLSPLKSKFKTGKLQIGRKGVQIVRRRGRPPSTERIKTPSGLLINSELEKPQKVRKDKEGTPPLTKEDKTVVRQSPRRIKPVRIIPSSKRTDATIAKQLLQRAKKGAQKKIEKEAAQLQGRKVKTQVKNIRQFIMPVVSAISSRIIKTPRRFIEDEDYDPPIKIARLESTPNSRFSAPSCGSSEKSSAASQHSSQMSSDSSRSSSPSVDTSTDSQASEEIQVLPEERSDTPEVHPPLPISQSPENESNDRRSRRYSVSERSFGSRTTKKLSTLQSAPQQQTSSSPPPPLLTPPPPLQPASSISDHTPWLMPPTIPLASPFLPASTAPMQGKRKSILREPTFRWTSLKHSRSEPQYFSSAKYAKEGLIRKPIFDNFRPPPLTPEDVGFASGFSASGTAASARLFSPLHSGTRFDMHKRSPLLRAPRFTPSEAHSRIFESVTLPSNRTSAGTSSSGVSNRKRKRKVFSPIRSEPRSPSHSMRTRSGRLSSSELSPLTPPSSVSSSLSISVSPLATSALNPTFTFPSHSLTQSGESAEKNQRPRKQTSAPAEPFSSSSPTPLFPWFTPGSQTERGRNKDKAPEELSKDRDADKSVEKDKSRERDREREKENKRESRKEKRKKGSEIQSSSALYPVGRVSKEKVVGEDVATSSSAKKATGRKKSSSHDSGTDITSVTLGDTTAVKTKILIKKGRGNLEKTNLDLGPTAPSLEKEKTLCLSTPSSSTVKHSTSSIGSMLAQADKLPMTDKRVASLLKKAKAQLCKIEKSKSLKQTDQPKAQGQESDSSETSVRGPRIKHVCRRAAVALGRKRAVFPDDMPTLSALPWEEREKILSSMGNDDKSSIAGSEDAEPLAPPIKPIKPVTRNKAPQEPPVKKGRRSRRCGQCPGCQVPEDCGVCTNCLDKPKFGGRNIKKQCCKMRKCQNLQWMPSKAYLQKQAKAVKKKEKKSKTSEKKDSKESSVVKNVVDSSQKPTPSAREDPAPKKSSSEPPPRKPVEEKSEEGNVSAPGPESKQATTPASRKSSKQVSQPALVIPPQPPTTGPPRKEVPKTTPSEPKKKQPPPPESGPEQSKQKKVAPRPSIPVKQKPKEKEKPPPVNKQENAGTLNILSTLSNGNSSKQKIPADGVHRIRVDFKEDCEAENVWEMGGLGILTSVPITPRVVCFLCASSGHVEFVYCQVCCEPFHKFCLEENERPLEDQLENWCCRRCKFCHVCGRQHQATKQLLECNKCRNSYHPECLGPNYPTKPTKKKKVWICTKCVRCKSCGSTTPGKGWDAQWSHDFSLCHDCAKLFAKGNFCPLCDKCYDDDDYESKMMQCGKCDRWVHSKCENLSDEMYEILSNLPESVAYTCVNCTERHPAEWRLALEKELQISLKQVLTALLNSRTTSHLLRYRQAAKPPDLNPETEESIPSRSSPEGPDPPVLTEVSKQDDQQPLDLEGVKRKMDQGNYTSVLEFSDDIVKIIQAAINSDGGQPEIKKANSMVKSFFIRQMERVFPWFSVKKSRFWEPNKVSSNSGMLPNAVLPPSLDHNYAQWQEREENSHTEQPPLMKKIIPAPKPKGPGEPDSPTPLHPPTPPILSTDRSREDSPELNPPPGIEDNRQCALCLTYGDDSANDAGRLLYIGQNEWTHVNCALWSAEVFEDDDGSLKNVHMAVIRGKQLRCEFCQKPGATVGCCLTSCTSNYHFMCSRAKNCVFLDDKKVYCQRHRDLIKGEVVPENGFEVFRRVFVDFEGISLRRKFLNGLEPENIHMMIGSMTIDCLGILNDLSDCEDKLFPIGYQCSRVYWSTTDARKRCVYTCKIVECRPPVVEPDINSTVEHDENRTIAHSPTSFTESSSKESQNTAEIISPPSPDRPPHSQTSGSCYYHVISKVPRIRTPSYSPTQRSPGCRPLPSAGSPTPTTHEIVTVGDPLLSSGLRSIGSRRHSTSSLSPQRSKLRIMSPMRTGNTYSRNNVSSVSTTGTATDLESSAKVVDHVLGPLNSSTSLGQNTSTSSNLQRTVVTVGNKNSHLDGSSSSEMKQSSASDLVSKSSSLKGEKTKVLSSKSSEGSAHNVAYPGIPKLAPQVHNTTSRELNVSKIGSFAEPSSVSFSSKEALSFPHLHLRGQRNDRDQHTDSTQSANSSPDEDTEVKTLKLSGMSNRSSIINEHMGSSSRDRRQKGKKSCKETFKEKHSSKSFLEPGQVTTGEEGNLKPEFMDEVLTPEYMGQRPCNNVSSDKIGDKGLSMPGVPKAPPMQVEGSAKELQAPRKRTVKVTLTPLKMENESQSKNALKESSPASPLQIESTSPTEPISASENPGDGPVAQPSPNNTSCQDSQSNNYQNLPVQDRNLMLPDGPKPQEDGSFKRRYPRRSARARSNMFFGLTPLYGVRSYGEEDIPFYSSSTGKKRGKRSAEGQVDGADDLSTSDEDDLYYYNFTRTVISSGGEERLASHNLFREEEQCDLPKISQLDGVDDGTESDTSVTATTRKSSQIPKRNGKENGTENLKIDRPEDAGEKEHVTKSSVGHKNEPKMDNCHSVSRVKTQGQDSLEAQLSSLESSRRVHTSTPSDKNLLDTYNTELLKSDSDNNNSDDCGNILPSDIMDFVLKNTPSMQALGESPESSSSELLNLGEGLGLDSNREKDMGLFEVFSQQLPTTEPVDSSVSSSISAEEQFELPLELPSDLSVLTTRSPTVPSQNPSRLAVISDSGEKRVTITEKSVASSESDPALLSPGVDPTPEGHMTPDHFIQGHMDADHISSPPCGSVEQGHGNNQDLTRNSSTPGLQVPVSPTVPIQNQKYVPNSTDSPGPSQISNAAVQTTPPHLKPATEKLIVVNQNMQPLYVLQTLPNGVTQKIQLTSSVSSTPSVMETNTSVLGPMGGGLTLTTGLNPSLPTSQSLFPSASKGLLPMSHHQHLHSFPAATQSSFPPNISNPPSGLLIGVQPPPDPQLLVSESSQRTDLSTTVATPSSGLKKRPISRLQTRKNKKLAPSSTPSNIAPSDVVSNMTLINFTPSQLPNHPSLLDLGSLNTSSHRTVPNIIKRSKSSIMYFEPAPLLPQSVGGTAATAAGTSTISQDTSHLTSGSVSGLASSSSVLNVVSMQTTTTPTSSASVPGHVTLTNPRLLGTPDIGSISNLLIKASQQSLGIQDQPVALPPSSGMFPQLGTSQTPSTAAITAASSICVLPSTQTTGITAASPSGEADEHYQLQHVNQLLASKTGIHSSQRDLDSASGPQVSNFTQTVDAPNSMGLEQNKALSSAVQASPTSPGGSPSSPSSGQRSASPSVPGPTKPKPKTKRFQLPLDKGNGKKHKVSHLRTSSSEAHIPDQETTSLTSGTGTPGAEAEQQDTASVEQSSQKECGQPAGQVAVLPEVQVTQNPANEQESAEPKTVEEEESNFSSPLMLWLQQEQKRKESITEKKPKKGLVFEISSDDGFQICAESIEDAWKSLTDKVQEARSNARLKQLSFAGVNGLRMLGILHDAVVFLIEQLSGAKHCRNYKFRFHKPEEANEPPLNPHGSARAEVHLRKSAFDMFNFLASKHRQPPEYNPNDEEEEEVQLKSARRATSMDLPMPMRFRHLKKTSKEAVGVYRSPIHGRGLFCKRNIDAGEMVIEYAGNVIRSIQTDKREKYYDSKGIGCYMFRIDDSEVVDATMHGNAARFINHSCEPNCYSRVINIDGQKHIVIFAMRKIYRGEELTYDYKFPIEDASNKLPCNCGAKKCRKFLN
# In all, about 290,000 compounds went through this assay and about 110 (0.038%) were called active. This list was built around the results that the source calls inconclusive (neither active nor inactive); the mix of calls is not that of the screen. Calls come from the whole dose curve; as a rule, active = well fitted inhibition curve with a large enough effect in the polarisation, with a control signal flat (not every such curve was filed as active); inconclusive = small, poorly fitted or top-dose-only effect, or effect the other way, or a change in a side signal; inactive = no such curve, though single readings can be large or run the other way; the % refers to the polarisation. Where the call is inconclusive, the potency comes from a doubtful curve fit. A note “side channel” means that the fit belongs to a control or component signal, not to the main read-out. Where a SMILES comes first, the peptide text is derived from it. [ ]: non-standard residue; d: D form. The star is where a group is joined. Phg = N[CH](C(=O)O)c1ccccc1; Cbz = O=C(OCc1ccccc1)*
# Molecular target: Histone-lysine N-methyltransferase 2A (Homo sapiens) (UniProt Q03164)
# Test: qHTS Fluorescence Polarization Assay for Inhibitors of MLL CXXC domain - DNA interaction
# Conditions: MLL-CXXC / FITC-HOXA9 DNA fluorescence polarization; series mostly up to 115 µM
# Procedure, shortened: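 Fluorescence polarization: 7 uM MLL-CXXC (stock) preincubated 5 min with compounds, then 50 nM fluorescein-HOX-A9 DNA (stock) added; 30 min ambient. Buffer 50 mM Tris-HCl pH 7.5, 50 mM NaCl, 1 mM DTT, 0.05% BSA.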
# Potency is the fitted concentration of half-maximal effect.
row,Structure (SMILES),Potency
1,CCOC(=O)C1=C(C)N=c2s/c(=C/c3cccc([N+](=O)[O-])c3O)c(=O)n2C1c1ccc(OC)cc1OC (stereo unspecified),"inconclusive: 15.8 µM [inhibitor, partial curve]"
2,O=C(CN1C(=O)c2ccccc2C1=O)Nc1cc(C(=O)O)cc(C(=O)O)c1,"inconclusive: 63.1 µM [fluorescent, side channel, single point]"
3,Cc1nnc2sc(-c3cccc4ccccc34)nn12,inactive
4,O=C(C[n+]1ccc(Cc2ccccc2)cc1)Nc1ccc([N+](=O)[O-])cc1Cl,inactive
5,O=C1C=CC(O)(c2cc(=O)c3c(O)cc(O)cc3o2)C=C1,"inconclusive: 31.6 µM [inhibitor, single point]"
6,O=C(CN1CCN(c2ccccc2)CC1)N1CCc2ccccc21,inactive
7,NC1=NC(=O)/C(=C\c2ccc(O)c([N+](=O)[O-])c2)S1,"inconclusive: 63.1 µM [inhibitor, single point]"
8,CNc1ccc(Br)cc(C(=O)/C=C/c2ccc3c(c2)OCO3)c1=O,"inconclusive: 70.8 µM [inhibitor, single point]"
9,C#CCn1cc(C=C2C(=O)c3ccccc3C2=O)c2ccccc21,"inconclusive: 2.82 µM [fluorescent, side channel, full curve, poor fit]"
10,CC(c1ccccc1)C1OCC(C[N+]2(C)CCCCC2)O1 (stereo unspecified),"inconclusive: 31.6 µM [quencher, side channel, partial curve, poor fit]"
11,Cc1ccc(CNC(=O)C2CCN(c3nn4c(=O)cc(C)nc4s3)CC2)cc1,inactive
12,Cc1ccc(C)c(C2NC(=O)c3ccccc3N2)c1 (stereo unspecified),"inconclusive: 12.6 µM [inhibitor, single point]"
13,O=C(O)C(NC(=O)C1CCCN1C(=O)OCc1ccccc1)c1ccccc1 (stereo not drawn) (Cbz-Pro-[Phg]-OH; configuration not given here),"inconclusive: 8.91 µM [inhibitor, full curve]"
14,CN(C)S(=O)(=O)c1ccc(NC(=O)CSc2n[nH]c(=O)n2C2CC2)cc1,"inconclusive: 15.8 µM [quencher, side channel, single point]"
15,Nc1c(C(=O)c2ccc(Cl)cc2)sc2nsc(SCCN3CCOCC3)c12,"inconclusive: 44.7 µM [fluorescent, side channel, partial curve]"
16,CCOc1cnc(-c2ccc(Cl)cc2)o1,inactive
17,CC(=O)Nc1ccc(C)c(NC(=S)Nc2ccc(F)cc2)c1,"inconclusive: 15.8 µM [inhibitor, partial curve, poor fit]"
18,CCCCCc1cc(=O)oc2c(C(CCN3CCN(c4ccccc4)CC3)c3ccc(N(C)C)cc3)c(OC)cc(OC)c12 (stereo unspecified),inactive
19,Cc1cccc(C)c1NC(=O)CN1C(=O)S/C(=C\c2cccn2-c2cccc(C(=O)O)c2)C1=O,inactive
20,Cc1c(C(=O)NC2CCS(=O)(=O)C2)oc2ccccc12 (stereo unspecified),inactive
21,CN(C)/C=C/C(=O)c1ccc(Br)s1,"inconclusive: 7.08 µM [quencher, side channel, full curve]"
22,OC[C@H](S)CS,inactive

# 4 consecutive records already listed, for reference:
row,Structure (SMILES),Potency
18,CCCCCc1cc(=O)oc2c(C(CCN3CCN(c4ccccc4)CC3)c3ccc(N(C)C)cc3)c(OC)cc(OC)c12 (stereo unspecified),inactive
19,Cc1cccc(C)c1NC(=O)CN1C(=O)S/C(=C\c2cccn2-c2cccc(C(=O)O)c2)C1=O,inactive
20,Cc1c(C(=O)NC2CCS(=O)(=O)C2)oc2ccccc12 (stereo unspecified),inactive
21,CN(C)/C=C/C(=O)c1ccc(Br)s1,"inconclusive: 7.08 µM [quencher, side channel, full curve]"

# Following part

row,Structure (SMILES),Potency
1,COc1ccccc1NC(=O)Cn1cnc2c(nnn2-c2ccc(C)cc2)c1=O,"inconclusive: 28.2 µM [fluorescent, side channel, partial curve]"
2,O=C(CS(=O)(=O)c1ccccc1)NCc1ccccc1,"inconclusive: 12.6 µM [fluorescent, side channel, partial curve]"
3,Cc1[nH]c2ccccc2c1N=Nc1ccccc1C(=O)O,"inconclusive: 1.58 µM [fluorescent, side channel, full curve, poor fit]"
4,C=CCn1cnc2c(c1=O)c1nc3ccccc3nc1n2/N=C/c1ccccn1,"inconclusive: 31.6 µM [quencher, side channel, partial curve]"
5,O=C(Nc1ccc(F)cc1)C(c1ccccc1)N1CCN(S(=O)(=O)c2ccc3ccccc3c2)CC1 (stereo unspecified),"inconclusive: 15.8 µM [fluorescent, side channel, single point]"
6,Oc1ccccc1Oc1ncc(Br)c(Cl)n1,"inconclusive: 89.1 µM [inhibitor, single point]"
7,Cc1cc(=O)oc2cc(OCC(O)CN3CCc4ccccc4C3)ccc12 (stereo unspecified),inactive
8,O=C(O)C(=O)/C(=C\c1cccc2ccccc12)c1ccc2ccccc2n1,"inconclusive: 35.5 µM [fluorescent, side channel, partial curve]"
9,N#CC1=C(N)NC(=S)C(C(N)=O)C1c1ccc([N+](=O)[O-])cc1 (stereo unspecified),"inconclusive: 15.8 µM [inhibitor, partial curve, poor fit]"
10,O=C(Nc1ccc2nc(-c3ccccn3)[nH]c2c1)C1CCCCC1,"inconclusive: 63.1 µM [quencher, side channel, single point]"
11,O=C(NC(=S)NNC(=O)c1ccccc1O)c1cccs1,inactive
12,Cc1ccc(-c2nc3c(Cl)cc(Cl)cc3c(=O)n2O)cc1,"inconclusive: 14.1 µM [fluorescent, side channel, full curve]"
13,Cc1ccc(NC(=O)NNC(=O)c2cc3ccccc3cc2O)cc1C,"inconclusive: 14.1 µM [quencher, side channel, single point]"
14,S=C(Nc1ccc(Br)cc1)NC1CCN(Cc2ccccc2)CC1,"inconclusive: 2.82 µM [quencher, side channel, partial curve]"
15,CCCNC(=O)NC(=O)CSc1nnc(-c2c[nH]c3ccccc23)o1,"inconclusive: 10 µM [inhibitor, single point]"
16,Cc1cc(O)c(/C=N/c2ccccn2)c(=O)o1,"inconclusive: 39.8 µM [fluorescent, side channel, single point]"
17,Cc1ccc2nc(CCc3nc4ccc(C)cc4[nH]3)[nH]c2c1,"inconclusive: 31.6 µM [quencher, side channel, partial curve]"
18,COc1ccc(CCCc2n[nH]c(=S)o2)c(C)c1,"inconclusive: 11.2 µM [inhibitor, single point]"
19,Cc1[nH]ccc(=O)c1OCc1c(F)cccc1Cl,"inconclusive: 70.8 µM [fluorescent, side channel, single point]"
20,Nc1nc(N2CCCCC2)c(C=O)c(N2CCCCC2)n1,inactive
21,Cc1cccc(OCCCN2C(=O)C(=O)c3cc(C)ccc32)c1,"inconclusive: 79.4 µM [inhibitor, single point]"
22,COc1ccc(/C=N/NC(=O)c2ccc(Br)cc2)cc1Cn1cc(Cl)cn1,inactive

row,Structure (SMILES),Potency
1,O=c1[nH]c(SCc2cccc(Cl)c2)nc2ccccc12,"inconclusive: 89.1 µM [inhibitor, single point]"
2,COc1ccccc1C(=O)Oc1ccc2c(c1)O/C(=C\c1ccncc1)C2=O,"inconclusive: 31.6 µM [fluorescent, side channel, partial curve]"
3,Cc1ccc(S(=O)(=O)/N=C2\C=C(Nc3cccc(C(=O)O)c3)C(=O)c3ccccc32)c(C)c1,inactive
4,CC(C)N1CCC2(CC1)C(C#N)=C(N)NC(S)=C2C#N,inactive
5,Cn1nccc1NC(=O)Nc1ccc(Cl)cc1,"inconclusive: 3.16 µM [fluorescent, side channel, full curve, poor fit]"
6,N#C/C(=C/c1ccc(N2CCOCC2)o1)c1ccc(Br)cc1,"inconclusive: 50.1 µM [fluorescent, side channel, partial curve]"
7,COC(=O)c1scc(S(=O)(=O)C(C)C)c1N/N=C(\C#N)C(=O)c1ccc(Cl)cc1,inactive
8,CCCOc1cccc(-c2cc(C(=O)NNC(=S)NCC)c3ccccc3n2)c1,"inconclusive: 44.7 µM [fluorescent, side channel, partial curve]"
9,CCOC(=O)CNC(=O)Nc1ccccc1C(=O)OC,inactive
10,COc1ccc(NC(=O)NCc2ccc3c(c2)OCO3)c(OC)c1,"inconclusive: 14.1 µM [fluorescent, side channel, single point]"
11,CCCN1CCC2(CC1)NC(C(=O)O)Cc1c2[nH]c2ccccc12 (stereo unspecified),"inconclusive: 6.31 µM [inhibitor, full curve]"
12,COc1ccccc1C1C(C(N)=O)=C(C)Nc2nc(CCCO)nn21 (stereo unspecified),"inconclusive: 63.1 µM [fluorescent, side channel, single point]"
13,Cc1ccc(S(=O)(=O)c2c(N)n(Cc3ccco3)c3nc4ccccc4nc23)cc1,inactive
14,CC(=O)N1CCN(C(=S)c2cccc([N+](=O)[O-])c2)CC1,inactive
15,Cc1cccc(C)c1-n1c(C)cc(/C=N/NC(=O)CSc2ncccn2)c1C,"inconclusive: 31.6 µM [quencher, side channel, single point]"
16,Cc1cc(=O)[nH]c(SCC(=O)Nc2ncc(S(=O)(=O)c3ccc([N+](=O)[O-])cc3)s2)n1,inactive
17,CCN1C(=S)SC(=O)C1=C1C=C(C)N(Cc2ccco2)C(C)=C1,"inconclusive: 44.7 µM [fluorescent, side channel, partial curve]"
18,Nn1cnc2c([nH]c3ccccc32)c1=O,inactive
19,O=C1c2sc3nc4n(c(=O)c3c2CCC1Br)CCCCC4 (stereo unspecified),inactive
20,CC(C)N(Cc1ccccc1)C(=O)C1CCCN(c2ncnc3c2nc2n3CCCCC2)C1 (stereo unspecified),inactive
21,Cc1onc(-c2c(Cl)cccc2Cl)c1C(=O)ONC(=O)c1cc(C(F)(F)F)cc(C(F)(F)F)c1,"inconclusive: 3.55 µM [inhibitor, full curve]"
22,Cc1ccc(NC(=O)CNc2ccc(OC(C)C)cc2)cc1,"inconclusive: 25.1 µM [inhibitor, partial curve]"
